Laboratory results: PubChem BioAssay AID686943 (Drosophila RNAi Screening Center, 2013)

Purpose: 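Search across the genome for regulators of signalling from receptor tyrosine kinase to ERK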 (primary screen)
System: Drosophila S2R+ haemocyte-like cells expressing YFP-tagged ERK (Rolled)
Knock-down reagent: long dsRNA against Drosophila genes
Conditions: insulin stimulation versus unstimulated cells; dose and duration not given
Detection: 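Per-plate z-scores of phospho-ERK immunostaining normalised to YFP-tagged ERK, measured with and without insulin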
Scale: replicate 1, z-score of dpERK with insulin: higher = more active ERK per ERK-YFP after insulin
The deposit covers about 23,000 reagents; shown is an unselected part of those with a known target gene and a result. 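Extra replicates exist only for a retested subset of genes; insulin dose and duration not given; both raised and lowered dpERK matter.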 Reagents against one gene are numbered here. A plus sign joins genes that one reagent is predicted to hit. Further read-outs or replicates are left out here. The record does not give: the amount of reagent, the time to read-out.

For CG13494 the deposit lists replicate 1, z-score of dpERK with insulin 0.15.
For rno, the entry reads replicate 1, z-score of dpERK with insulin 0.02.
Depletion of Grl62a gave: replicate 1, z-score of dpERK with insulin 0.66.
For Mekk1 #1, the entry reads replicate 1, z-score of dpERK with insulin -1.29.
Silencing of Mekk1 #2 resulted in: replicate 1, z-score of dpERK with insulin -0.13.
After knock-down of CG31266 the results were replicate 1, z-score of dpERK with insulin -0.09.
Knock-down of blw resulted in: replicate 1, z-score of dpERK with insulin -0.17.
With knock-down of CG18788, the screen gave replicate 1, z-score of dpERK with insulin 0.94.
DppIII showed replicate 1, z-score of dpERK with insulin 0.82.
Knock-down of CG32628 (retired record) resulted in: replicate 1, z-score of dpERK with insulin 1.05.
Tret1-1 #1 scored replicate 1, z-score of dpERK with insulin 0.09.
After knock-down of Tret1-1 #2, the screen gave replicate 1, z-score of dpERK with insulin -0.01.
Silencing of CG14384 resulted in: replicate 1, z-score of dpERK with insulin -0.5.
With knock-down of cnk, the screen gave replicate 1, z-score of dpERK with insulin -6.5.
With knock-down of CG13251, the screen gave replicate 1, z-score of dpERK with insulin 0.08.
c-cup gave replicate 1, z-score of dpERK with insulin 0.19.
For Orct2, the entry reads replicate 1, z-score of dpERK with insulin -0.48.
vas (retired record) gave replicate 1, z-score of dpERK with insulin 0.17.
Silencing of Bhmt came out at: replicate 1, z-score of dpERK with insulin 0.91.
CG4907 gave replicate 1, z-score of dpERK with insulin 0.8.
Knock-down of bbx + waw #1 gave: replicate 1, z-score of dpERK with insulin 0.48.
Against bbx + waw #2, the entry reads replicate 1, z-score of dpERK with insulin -0.69.
Silencing of Eph came out at: replicate 1, z-score of dpERK with insulin -1.13.
For CG1344, the entry reads replicate 1, z-score of dpERK with insulin 0.15.
Ugt50B3 #1 scored replicate 1, z-score of dpERK with insulin 0.26.
Depletion of Ugt50B3 #2 resulted in: replicate 1, z-score of dpERK with insulin 1.33.
Knock-down of Ugt50B3 #3 came out at: replicate 1, z-score of dpERK with insulin -0.59.
Eig71Ek scored replicate 1, z-score of dpERK with insulin -0.35.
Silencing of CG8617 came out at: replicate 1, z-score of dpERK with insulin -0.84.
Pde6 #1 scored replicate 1, z-score of dpERK with insulin -0.93.
Against Pde6 #2, the entry reads replicate 1, z-score of dpERK with insulin -0.03.
For Pde6 #3, the values are replicate 1, z-score of dpERK with insulin 0.26.

Taken from above.
Entry of Eph under “replicate 1, z-score of dpERK with insulin”: -1.13
Value of Tret1-1 #1 in “replicate 1, z-score of dpERK with insulin”: 0.09
Ugt50B3 #1, replicate 1, z-score of dpERK with insulin = 0.26
For “replicate 1, z-score of dpERK with insulin”, CG18788 shows 0.94
